Here are results for one molecule from article PMC10670284.

Results are given in words; binding and its absence hold for the method and conditions named. Binding seen in cells or lysates may run through a third protein. Sequences can lack the tags named with a protein.

In the test the target is FLAG-tagged TCF7L2, C-terminally truncated (delC = TCF7L2AA1-321). As to the kind of experiment: co-IP; 0.5 mg whole cell extract of transfected HEK293T cells rotated overnight at +4 °C with 2.5 μg anti-FLAG antibody, Dynabeads Protein G; extracts diluted to 150 mM NaCl and 0.1% NP-40; Western blot. For orientation: A western blot detects proteins with antibodies after separation by electrophoresis.

B1: Myc-tagged KDM2A (protein, UniProt Q9Y2K7 1-1162)
chain: MEPEEERIRYSQRLRGTMRRRYEDDGISDDEIEGKRTFDLEEKLHTNKYNANFVTFMEGKDFNVEYIQRGGLRDPLIFKNSDGLGIKMPDPDFTVNDVKMCVGSRRMVDVMDVNTQKGIEMTMAQWTRYYETPEEEREKLYNVISLEFSHTRLENMVQRPSTVDFIDWVDNMWPRHLKESQTESTNAILEMQYPKVQKYCLMSVRGCYTDFHVDFGGTSVWYHIHQGGKVFWLIPPTAHNLELYENWLLSGKQGDIFLGDRVSDCQRIELKQGYTFVIPSGWIHAVYTPTDTLVFGGNFLHSFNIPMQLKIYNIEDRTRVPNKFRYPFYYEMCWYVLERYVYCITNRSHLTKEFQKESLSMDLELNGLESGNGDEEAVDREPRRLSSRRSVLTSPVANGVNLDYDGLGKTCRSLPSLKKTLAGDSSSDCSRGSHNGQVWDPQCAPRKDRQVHLTHFELEGLRCLVDKLESLPLHKKCVPTGIEDEDALIADVKILLEELANSDPKLALTGVPIVQWPKRDKLKFPTRPKVRVPTIPITKPHTMKPAPRLTPVRPAAASPIVSGARRRRVRCRKCKACVQGECGVCHYCRDMKKFGGPGRMKQSCVLRQCLAPRLPHSVTCSLCGEVDQNEETQDFEKKLMECCICNEIVHPGCLQMDGEGLLNEELPNCWECPKCYQEDSSEKAQKRKMEESDEEAVQAKVLRPLRSCDEPLTPPPHSPTSMLQLIHDPVSPRGMVTRSSPGAGPSDHHSASRDERFKRRQLLRLQATERTMVREKENNPSGKKELSEVEKAKIRGSYLTVTLQRPTKELHGTSIVPKLQAITASSANLRHSPRVLVQHCPARTPQRGDEEGLGGEEEEEEEEEEEDDSAEEGGAARLNGRGSWAQDGDESWMQREVWMSVFRYLSRRELCECMRVCKTWYKWCCDKRLWTKIDLSRCKAIVPQALSGIIKRQPVSLDLSWTNISKKQLTWLVNRLPGLKDLLLAGCSWSAVSALSTSSCPLLRTLDLRWAVGIKDPQIRDLLTPPADKPGQDNRSKLRNMTDFRLAGLDITDATLRLIIRHMPLLSRLDLSHCSHLTDQSSNLLTAVGSSTRYSLTELNMAGCNKLTDQTLIYLRRIANVTLIDLRGCKQITRKACEHFISDLSINSLYCLSDEKLIQKIS
Take B1: the binding entry was “no binding”.
